Test results taken from article PMC5008269.
Results are given in words; binding and its absence hold for the method and conditions named. Binding seen in cells or lysates may run through a third protein. Some results given as binding are weak or reduced against the parent protein; the word gives no strength.

The chains behind the UniProt entries cited, without tags or fusion partners.
UniProt Q8N122: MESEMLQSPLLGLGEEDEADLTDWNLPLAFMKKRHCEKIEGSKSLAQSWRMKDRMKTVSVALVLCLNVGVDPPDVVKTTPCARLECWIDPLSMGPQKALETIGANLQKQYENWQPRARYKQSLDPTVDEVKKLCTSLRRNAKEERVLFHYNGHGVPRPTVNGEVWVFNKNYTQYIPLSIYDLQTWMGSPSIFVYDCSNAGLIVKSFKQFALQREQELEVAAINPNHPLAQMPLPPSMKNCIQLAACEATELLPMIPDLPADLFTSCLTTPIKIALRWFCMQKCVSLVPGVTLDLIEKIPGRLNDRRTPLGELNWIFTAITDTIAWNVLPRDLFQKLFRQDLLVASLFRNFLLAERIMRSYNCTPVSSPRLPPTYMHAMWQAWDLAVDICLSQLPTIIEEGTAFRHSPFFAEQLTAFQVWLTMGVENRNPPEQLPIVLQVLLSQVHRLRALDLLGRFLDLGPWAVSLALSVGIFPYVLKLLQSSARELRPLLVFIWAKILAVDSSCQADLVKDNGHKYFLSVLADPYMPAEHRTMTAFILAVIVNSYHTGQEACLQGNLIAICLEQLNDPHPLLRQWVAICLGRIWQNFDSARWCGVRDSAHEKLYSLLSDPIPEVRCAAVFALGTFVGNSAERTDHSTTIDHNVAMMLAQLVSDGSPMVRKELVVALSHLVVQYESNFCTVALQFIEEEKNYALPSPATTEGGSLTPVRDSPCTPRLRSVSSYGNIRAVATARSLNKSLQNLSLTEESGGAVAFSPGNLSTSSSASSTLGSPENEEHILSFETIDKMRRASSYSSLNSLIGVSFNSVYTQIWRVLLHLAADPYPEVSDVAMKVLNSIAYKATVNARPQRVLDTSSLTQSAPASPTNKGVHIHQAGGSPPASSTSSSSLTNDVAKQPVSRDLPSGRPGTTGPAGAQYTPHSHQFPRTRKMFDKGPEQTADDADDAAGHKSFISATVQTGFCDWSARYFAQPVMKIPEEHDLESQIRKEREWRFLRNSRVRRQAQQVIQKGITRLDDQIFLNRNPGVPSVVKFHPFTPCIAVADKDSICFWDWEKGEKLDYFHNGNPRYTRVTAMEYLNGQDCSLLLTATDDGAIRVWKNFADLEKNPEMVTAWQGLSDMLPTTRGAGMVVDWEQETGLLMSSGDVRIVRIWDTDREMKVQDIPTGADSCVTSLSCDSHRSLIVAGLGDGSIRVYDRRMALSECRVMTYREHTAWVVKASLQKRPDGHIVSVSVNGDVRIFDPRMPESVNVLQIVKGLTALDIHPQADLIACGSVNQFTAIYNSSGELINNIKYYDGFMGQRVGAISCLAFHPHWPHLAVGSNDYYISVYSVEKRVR

What was measured:
[1] = molecular target: T1, IKKα (human (endogenous in PC3)) (UniProt O15111); test: co-IP; PC3 extract separated on a Superose 6 10/300 GL column; IKKα immunoprecipitated from fractions 13-15, immunoblot
T1 sequence: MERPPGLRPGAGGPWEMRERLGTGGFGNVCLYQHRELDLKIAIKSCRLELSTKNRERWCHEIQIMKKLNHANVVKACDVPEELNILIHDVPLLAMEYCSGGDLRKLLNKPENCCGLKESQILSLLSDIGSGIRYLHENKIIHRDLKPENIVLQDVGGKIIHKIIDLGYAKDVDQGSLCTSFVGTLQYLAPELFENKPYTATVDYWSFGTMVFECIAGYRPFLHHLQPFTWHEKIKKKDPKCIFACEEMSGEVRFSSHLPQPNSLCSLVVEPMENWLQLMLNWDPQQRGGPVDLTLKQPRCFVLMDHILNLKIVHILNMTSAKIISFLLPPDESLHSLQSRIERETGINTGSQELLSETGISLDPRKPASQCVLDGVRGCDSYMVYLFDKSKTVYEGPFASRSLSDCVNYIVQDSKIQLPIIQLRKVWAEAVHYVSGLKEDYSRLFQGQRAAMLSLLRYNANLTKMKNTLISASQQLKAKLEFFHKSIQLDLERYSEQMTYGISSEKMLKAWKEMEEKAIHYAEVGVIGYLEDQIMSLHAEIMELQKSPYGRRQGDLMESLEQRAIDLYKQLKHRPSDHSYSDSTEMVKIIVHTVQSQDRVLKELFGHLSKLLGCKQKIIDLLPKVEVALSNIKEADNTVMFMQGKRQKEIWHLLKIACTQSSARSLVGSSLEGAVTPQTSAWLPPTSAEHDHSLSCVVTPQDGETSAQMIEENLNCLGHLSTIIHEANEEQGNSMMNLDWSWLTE

[2] = molecular target: T1, IKKα (human (endogenous in PC3)); test: co-IP; endogenous proteins in PC3 lysate, lysis buffer with 0.3% CHAPS; antibody to IKKα, mTOR or Rictor, protein G agarose, immunoblot; mouse or rabbit IgG as negative control; also after LY294002 for one hour (IKKα-Rictor decreased dose-dependently) and after siRNA to IKKα (Rictor-mTOR association unchanged)

Q: Which binding [1] does the source give for “Raptor (from UniProt Q8N122 1-1335) (other; other documents disagree on this pair)” here?
A: binds

Q: What about the binding [2] of the same substance?
A: binds
